Earlier results, collected in PMC8222394 (Nature Communications, 2021).

Tested on: c-Kit
Details: read-out: IC50 c-Kit; Porcine aorta endothelial cells; ref selleckchem.com; cited from earlier work

For CNC(=O)c1ccccc1Sc1ccc2c(/C=C/c3ccccn3)n[nH]c2c1 [Axitinib], the IC50 is given as 1.7 nM.
